Consider three molecules from publication PMC5862502, “Coordinated regulation of Arabidopsis microRNA biogenesis and red light signaling through Dicer-like 1 and phytochrome-interacting factor 4”.

Protein sequences, listed by entry. Tags and fused reporters are not part of them.
UniProt Q9SP32: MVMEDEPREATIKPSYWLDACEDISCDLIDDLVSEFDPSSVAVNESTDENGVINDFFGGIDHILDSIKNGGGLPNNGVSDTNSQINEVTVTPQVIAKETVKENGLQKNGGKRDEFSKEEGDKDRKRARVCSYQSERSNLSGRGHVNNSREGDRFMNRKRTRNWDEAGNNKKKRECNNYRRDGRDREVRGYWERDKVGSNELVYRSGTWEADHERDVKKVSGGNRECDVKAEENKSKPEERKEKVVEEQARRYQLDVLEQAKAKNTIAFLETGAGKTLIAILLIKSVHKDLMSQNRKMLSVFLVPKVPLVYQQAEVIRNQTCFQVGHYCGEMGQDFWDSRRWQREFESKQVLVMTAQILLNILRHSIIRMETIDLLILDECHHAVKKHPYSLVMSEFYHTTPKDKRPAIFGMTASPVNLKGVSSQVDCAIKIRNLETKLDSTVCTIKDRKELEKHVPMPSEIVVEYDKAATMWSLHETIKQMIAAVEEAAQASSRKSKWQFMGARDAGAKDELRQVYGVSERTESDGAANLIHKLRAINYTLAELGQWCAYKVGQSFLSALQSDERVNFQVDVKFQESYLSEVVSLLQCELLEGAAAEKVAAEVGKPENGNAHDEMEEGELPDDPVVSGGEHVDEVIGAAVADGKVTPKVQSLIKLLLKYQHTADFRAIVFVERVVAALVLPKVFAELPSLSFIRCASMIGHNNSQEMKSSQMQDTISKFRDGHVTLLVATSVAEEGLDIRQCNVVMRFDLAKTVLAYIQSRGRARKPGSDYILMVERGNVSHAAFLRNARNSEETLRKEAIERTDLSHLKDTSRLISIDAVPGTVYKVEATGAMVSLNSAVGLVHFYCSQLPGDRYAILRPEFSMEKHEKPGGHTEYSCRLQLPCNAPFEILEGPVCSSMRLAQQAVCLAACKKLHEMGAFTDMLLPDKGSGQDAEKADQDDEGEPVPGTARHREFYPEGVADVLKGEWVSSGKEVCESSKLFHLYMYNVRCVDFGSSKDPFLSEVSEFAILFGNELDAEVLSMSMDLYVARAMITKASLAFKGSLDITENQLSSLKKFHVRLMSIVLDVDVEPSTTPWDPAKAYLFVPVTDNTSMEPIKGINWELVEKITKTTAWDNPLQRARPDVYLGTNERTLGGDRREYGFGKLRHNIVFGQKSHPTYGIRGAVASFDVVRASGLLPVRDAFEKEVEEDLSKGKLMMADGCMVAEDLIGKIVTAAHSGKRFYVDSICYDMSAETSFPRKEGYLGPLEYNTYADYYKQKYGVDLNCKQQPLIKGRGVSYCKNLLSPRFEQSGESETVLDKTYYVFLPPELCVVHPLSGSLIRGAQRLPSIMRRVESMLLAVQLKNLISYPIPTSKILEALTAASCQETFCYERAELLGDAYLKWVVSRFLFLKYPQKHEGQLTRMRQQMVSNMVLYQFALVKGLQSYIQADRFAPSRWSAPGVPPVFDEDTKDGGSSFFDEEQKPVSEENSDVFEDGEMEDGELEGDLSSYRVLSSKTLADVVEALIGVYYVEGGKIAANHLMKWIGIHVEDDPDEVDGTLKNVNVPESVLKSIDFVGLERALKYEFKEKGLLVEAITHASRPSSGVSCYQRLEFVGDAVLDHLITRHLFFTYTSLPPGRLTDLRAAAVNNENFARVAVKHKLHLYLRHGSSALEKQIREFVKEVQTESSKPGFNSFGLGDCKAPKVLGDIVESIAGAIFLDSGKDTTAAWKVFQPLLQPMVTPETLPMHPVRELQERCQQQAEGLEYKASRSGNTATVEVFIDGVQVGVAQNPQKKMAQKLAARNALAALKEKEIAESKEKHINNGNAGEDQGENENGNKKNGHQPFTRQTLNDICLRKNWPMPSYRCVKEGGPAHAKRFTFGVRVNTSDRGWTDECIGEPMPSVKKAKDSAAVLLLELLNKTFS

The target of test [1] is T1, PIF4-HA (pPIF4::PIF4-HA) (Arabidopsis) (UniProt Q8W2F3).
T1 sequence: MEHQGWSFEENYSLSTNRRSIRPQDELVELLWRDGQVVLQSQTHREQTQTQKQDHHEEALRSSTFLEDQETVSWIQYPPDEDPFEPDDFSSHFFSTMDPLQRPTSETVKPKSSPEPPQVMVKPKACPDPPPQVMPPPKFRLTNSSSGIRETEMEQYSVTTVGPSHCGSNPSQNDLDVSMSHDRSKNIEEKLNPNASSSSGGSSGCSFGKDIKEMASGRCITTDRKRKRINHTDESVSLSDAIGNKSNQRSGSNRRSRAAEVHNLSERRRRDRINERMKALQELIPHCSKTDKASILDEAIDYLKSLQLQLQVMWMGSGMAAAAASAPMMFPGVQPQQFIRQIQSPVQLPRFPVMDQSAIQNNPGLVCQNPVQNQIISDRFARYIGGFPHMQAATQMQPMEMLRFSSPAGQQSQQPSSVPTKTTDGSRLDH
As to the kind of experiment: co-IP; extracts of 4-day-old transgenic Arabidopsis seedlings (pPIF4::PIF4-HA and pDCL1::DCL1-YFP); anti-HA agarose; blots with anti-HA and anti-GFP.

The target in test [2] is DCL1 fused to the N-terminal fragment of YFP (YFPN) (Arabidopsis) (UniProt Q9SP32). As to the kind of experiment: split reporter; BiFC with YFPN and YFPC fusions, transient in tobacco leaf epidermal cells; imaged 48 h after co-inoculation.

These are yes or no findings as the source states them, for the method shown. Binding seen in cells or lysates may run through a third protein. Some results given as binding are weak or reduced against the parent protein; the word gives no strength. Sequences can lack the tags named with a protein.

As for “DCL1-YFP (pDCL1::DCL1-YFP) (from UniProt Q9SP32 1-1909) (enzyme)”, the binding entry in test [1] is “binds”.

B1: C-terminal fragment of PIF4 (PIF4-C), BiFC fusion (domain or fragment, UniProt Q8W2F3 255-430)
chain: RSRAAEVHNLSERRRRDRINERMKALQELIPHCSKTDKASILDEAIDYLKSLQLQLQVMWMGSGMAAAAASAPMMFPGVQPQQFIRQIQSPVQLPRFPVMDQSAIQNNPGLVCQNPVQNQIISDRFARYIGGFPHMQAATQMQPMEMLRFSSPAGQQSQQPSSVPTKTTDGSRLDH
Regarding B1, in test [2], the binding result is on record as “binds”.

B2: N-terminal fragment of PIF4 (PIF4-N), BiFC fusion (domain or fragment, UniProt Q8W2F3 1-254)
chain: MEHQGWSFEENYSLSTNRRSIRPQDELVELLWRDGQVVLQSQTHREQTQTQKQDHHEEALRSSTFLEDQETVSWIQYPPDEDPFEPDDFSSHFFSTMDPLQRPTSETVKPKSSPEPPQVMVKPKACPDPPPQVMPPPKFRLTNSSSGIRETEMEQYSVTTVGPSHCGSNPSQNDLDVSMSHDRSKNIEEKLNPNASSSSGGSSGCSFGKDIKEMASGRCITTDRKRKRINHTDESVSLSDAIGNKSNQRSGSNR
For B2, in test [2], the binding entry is reported as “no binding”.
